At least one compound was matched to its structure with a doubt left.
Test system: MDA-MB-231 cells transfected with SID
Assay: Proliferation assay (MTT) for ERα and RAR activation
Type: cell-based, human
Conditions: 2.5 μM estradiol (E2); SID-transfected MDA-MB-231
Source text: FIG. 5: A. Schematic representations of the promoters and 5′ untranslated regions (5′UTR) of CDH1 and ESR1 used in this study. Positions of CpG dinucleotides are indicated by grey ticks and the transcription initiation sites are represented by black arrows. The relative positions of primer pairs used to PCR amplify immunoprecipitated DNA from ChIP analysis and bisulfite-modified DNA are also indicated. B. H3K4me3 levels on the CDH1 and ESR1 promoter regions increase dramatically in response to SID. ChIP analysis was performed with chromatin from wild type or stably transfected MDA-MB-231 cells as indicated. Cross-linked protein-DNA complexes were immunoprecipitated with an anti-trimethyl H3K4 antibody and amplified by real-time PCR. Results are shown as percentage of input DNA. The RPL30 housekeeping gene is shown as a control. C. Real-time PCR analysis of CDH1 and ESR1 gene expression. […] The amount of GAPDH molecules per μg total RNA was determined by absolute quantification. […]
For activation of RARs […] ATRA (all-trans-retinoic acid, pan-RAR agonist) or 100 nM Am580 (retinoibeozoic acid, RARα-specific agonist) was used daily for 48 hours. Cell proliferation was determined by MTT (Thiazolyl Blue Tetrazolium Bromide) colorimetric assay following standard protocols (Invitrogen). The optical density (OD) of reduced MTT was assessed at 570 nm versus 620/630 nm after 4 hr at 37° C. […]

SMILES: C[C@]12CC[C@@H]3c4ccc(O)cc4CC[C@H]3[C@@H]1CC[C@@H]2O [estradiol]
- growth sensitivity to estradiol (MTT): induced growth sensitivity
